Results are given in words; binding and its absence hold for the method and conditions named. In cells and extracts the contact can be indirect. For some assays here: A result given as binding can be weak or reduced; the word gives no strength. For some assays here: Where a sequence is shown, tags or fusion partners need not be part of it.

Assay [1] deals with T1, nYFP-IRT1vr (Arabidopsis thaliana) (UniProt Q38856).
T1 sequence: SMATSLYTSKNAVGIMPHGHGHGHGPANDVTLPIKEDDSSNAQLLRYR
The assay is described as follows: split reporter.

Assay [2] addresses EHB1-GFP (Arabidopsis thaliana). Nature of the assay: FRET or BRET. (In BRET a luciferase serves as donor, and the signal depends on an acceptor being close.)
Assay [3] concerns the target nYFP-EHB1 (Arabidopsis thaliana). Nature of the assay: split reporter.

For cYFP-EHB1Δsig (Arabidopsis thaliana), the binding result in assay [1] was “no binding”.

B1: TTN5^T30N-mCherry (protein, UniProt Q9ZPX1 1-185)
chain: MGLLSIIRKIKKKEKEMRILMVGLDNSGKNTIVLKINGEDTSVISPTLGFNIKTIIYQKYTLNIWDVGGQKTIRSYWRNYFEQTDGLVWVVDSSDLRRLDDCKMELDNLLKEERLAGSSLLILANKQDIQGALTPDEIGKVLNLESMDKSRHWKIVGCSAYTGEGLLEGFDWLVQDIASRIYMLD
In the case of B1, the binding entry in assay [2] is on record as “binds”.

B2: cYFP-TTN5^Q70L (protein, UniProt Q9ZPX1 1-185)
chain: MGLLSIIRKIKKKEKEMRILMVGLDNSGKTTIVLKINGEDTSVISPTLGFNIKTIIYQKYTLNIWDVGGLKTIRSYWRNYFEQTDGLVWVVDSSDLRRLDDCKMELDNLLKEERLAGSSLLILANKQDIQGALTPDEIGKVLNLESMDKSRHWKIVGCSAYTGEGLLEGFDWLVQDIASRIYMLD
With B2, the binding result in assay [3] is reported as “no binding”.

B3: TTN5^Q70L-mCherry (protein, UniProt Q9ZPX1 1-185)
chain: MGLLSIIRKIKKKEKEMRILMVGLDNSGKTTIVLKINGEDTSVISPTLGFNIKTIIYQKYTLNIWDVGGLKTIRSYWRNYFEQTDGLVWVVDSSDLRRLDDCKMELDNLLKEERLAGSSLLILANKQDIQGALTPDEIGKVLNLESMDKSRHWKIVGCSAYTGEGLLEGFDWLVQDIASRIYMLD
Regarding B3, the binding result in assay [2] is “binds”.

B4: cYFP-TTN5^T30N (protein, UniProt Q9ZPX1 1-185)
chain: MGLLSIIRKIKKKEKEMRILMVGLDNSGKNTIVLKINGEDTSVISPTLGFNIKTIIYQKYTLNIWDVGGQKTIRSYWRNYFEQTDGLVWVVDSSDLRRLDDCKMELDNLLKEERLAGSSLLILANKQDIQGALTPDEIGKVLNLESMDKSRHWKIVGCSAYTGEGLLEGFDWLVQDIASRIYMLD
For the molecule B4, in assay [3], the binding entry is “no binding”.

Source of the values: article doi:10.1101/2023.04.27.538571.
